Results are given in words; binding and its absence hold for the method and conditions named. Binding seen in cells or lysates may run through a third protein. These calls come from enrichment with a bait or labelling near it, and not all partners need be listed.

Protein sequences, listed by entry. Tags and fused reporters are not part of them.
UniProt Q13148: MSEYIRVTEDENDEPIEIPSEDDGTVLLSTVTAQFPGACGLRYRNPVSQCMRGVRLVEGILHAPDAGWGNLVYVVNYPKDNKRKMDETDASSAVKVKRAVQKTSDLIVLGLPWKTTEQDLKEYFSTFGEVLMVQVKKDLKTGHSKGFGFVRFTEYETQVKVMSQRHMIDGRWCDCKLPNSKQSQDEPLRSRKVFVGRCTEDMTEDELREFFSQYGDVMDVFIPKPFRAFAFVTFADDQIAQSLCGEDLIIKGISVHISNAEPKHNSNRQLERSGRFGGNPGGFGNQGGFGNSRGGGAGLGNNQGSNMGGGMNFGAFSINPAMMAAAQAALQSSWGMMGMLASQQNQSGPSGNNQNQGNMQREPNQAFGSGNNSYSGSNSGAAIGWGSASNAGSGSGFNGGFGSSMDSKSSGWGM
UniProt O75037: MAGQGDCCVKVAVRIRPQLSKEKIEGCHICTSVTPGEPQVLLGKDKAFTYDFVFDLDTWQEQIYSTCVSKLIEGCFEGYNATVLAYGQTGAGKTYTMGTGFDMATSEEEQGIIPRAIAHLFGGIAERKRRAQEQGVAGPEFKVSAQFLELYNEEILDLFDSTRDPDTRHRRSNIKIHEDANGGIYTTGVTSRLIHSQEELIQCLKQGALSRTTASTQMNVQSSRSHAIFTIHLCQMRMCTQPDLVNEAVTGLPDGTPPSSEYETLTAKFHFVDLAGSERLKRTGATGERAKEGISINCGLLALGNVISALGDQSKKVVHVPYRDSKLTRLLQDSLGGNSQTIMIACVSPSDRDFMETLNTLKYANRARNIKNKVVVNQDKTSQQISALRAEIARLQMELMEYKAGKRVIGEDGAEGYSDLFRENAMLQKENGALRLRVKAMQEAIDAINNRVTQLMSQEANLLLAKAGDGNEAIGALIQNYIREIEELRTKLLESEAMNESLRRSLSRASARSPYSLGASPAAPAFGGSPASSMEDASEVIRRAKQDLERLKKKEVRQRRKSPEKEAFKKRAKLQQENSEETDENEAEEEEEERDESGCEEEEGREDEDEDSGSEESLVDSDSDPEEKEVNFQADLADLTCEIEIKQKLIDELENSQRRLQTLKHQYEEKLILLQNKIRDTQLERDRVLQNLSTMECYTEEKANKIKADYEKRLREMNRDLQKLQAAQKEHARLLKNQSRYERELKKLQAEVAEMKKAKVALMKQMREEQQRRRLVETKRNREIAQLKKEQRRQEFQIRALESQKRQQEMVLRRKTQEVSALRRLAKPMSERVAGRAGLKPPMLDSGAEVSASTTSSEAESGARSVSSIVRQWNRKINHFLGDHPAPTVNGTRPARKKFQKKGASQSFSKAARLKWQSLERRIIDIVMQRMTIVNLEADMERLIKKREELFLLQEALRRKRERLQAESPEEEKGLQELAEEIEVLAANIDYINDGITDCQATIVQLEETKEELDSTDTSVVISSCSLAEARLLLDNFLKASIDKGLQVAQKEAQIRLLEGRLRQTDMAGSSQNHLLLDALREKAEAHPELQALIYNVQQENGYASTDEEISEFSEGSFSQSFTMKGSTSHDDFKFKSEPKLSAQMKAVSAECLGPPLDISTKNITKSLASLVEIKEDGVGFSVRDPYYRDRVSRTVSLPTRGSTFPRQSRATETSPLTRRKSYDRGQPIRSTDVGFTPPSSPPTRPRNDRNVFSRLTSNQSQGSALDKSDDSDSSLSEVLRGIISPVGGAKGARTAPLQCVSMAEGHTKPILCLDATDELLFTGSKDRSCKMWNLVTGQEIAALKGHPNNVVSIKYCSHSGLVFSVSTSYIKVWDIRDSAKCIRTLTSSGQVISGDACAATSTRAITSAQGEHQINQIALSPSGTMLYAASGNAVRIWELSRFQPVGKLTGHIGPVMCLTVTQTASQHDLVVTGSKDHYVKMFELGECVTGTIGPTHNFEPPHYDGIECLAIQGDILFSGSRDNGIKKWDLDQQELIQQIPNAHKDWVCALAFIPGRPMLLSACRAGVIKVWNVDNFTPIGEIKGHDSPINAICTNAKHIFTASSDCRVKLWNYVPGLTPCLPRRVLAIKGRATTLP
UniProt Q7Z4S6: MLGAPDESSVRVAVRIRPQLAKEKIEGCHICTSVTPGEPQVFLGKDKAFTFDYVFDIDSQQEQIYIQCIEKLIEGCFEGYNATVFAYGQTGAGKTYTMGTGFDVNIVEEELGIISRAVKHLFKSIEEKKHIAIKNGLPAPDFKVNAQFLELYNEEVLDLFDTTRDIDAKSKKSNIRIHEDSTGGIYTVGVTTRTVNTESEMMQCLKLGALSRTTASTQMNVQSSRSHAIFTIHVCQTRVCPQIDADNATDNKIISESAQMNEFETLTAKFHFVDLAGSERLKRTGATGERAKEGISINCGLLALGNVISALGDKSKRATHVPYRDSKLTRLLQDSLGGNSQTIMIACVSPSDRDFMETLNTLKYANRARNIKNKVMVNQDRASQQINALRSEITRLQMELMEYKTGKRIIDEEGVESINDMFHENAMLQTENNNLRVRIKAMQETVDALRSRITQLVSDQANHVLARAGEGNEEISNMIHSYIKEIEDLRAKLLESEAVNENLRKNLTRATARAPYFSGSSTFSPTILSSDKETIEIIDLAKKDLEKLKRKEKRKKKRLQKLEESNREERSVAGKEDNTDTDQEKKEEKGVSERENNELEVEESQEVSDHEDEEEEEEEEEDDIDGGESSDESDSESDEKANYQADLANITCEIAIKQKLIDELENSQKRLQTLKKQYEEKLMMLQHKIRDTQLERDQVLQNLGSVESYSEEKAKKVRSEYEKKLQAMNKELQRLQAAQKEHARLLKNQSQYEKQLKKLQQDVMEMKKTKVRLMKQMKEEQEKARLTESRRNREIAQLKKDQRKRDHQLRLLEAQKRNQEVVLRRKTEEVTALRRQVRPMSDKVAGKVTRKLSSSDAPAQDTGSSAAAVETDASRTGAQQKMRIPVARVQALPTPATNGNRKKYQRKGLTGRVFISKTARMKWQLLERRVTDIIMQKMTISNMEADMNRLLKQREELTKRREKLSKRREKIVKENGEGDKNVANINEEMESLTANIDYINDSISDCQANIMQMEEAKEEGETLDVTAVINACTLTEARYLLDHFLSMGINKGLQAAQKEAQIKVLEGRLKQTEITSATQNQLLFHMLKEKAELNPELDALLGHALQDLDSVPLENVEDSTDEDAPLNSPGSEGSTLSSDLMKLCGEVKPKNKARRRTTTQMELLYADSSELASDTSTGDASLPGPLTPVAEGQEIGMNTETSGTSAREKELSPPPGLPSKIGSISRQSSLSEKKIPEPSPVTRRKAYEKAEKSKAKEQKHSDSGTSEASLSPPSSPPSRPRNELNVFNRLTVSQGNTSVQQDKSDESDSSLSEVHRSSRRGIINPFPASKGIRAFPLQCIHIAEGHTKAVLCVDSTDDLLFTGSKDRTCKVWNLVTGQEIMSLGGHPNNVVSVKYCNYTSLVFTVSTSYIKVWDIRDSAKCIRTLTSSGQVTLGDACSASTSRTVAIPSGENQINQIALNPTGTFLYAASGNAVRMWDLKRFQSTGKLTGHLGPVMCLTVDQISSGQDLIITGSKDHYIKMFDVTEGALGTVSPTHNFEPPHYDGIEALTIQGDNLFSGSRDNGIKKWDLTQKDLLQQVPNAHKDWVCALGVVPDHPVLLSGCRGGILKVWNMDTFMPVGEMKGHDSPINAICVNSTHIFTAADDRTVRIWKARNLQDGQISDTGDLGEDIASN
UniProt P08758: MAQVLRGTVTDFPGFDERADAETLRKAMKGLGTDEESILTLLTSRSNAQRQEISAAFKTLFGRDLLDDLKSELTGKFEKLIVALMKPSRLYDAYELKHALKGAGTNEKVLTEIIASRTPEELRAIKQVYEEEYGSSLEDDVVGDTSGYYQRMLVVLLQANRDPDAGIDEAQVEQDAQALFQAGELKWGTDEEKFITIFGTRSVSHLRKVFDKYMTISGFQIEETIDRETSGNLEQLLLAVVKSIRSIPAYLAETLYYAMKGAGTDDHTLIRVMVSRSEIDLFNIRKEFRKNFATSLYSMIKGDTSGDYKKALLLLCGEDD
UniProt Q9NSK0: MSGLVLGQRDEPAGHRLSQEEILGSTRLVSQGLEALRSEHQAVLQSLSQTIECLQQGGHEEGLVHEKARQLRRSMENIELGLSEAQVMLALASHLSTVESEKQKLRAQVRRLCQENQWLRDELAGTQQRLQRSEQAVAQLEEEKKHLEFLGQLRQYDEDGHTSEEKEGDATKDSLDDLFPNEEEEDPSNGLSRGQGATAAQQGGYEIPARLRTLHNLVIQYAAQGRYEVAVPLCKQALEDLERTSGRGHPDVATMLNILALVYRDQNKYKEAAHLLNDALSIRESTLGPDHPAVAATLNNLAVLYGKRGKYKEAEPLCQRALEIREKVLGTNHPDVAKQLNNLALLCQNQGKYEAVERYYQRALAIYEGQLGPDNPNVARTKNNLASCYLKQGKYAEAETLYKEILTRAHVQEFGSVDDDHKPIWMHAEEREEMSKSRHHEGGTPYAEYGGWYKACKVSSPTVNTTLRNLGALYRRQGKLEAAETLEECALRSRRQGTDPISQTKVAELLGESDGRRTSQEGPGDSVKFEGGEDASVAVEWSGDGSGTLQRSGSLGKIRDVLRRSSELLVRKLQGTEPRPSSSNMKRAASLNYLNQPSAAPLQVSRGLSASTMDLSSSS
UniProt Q12756: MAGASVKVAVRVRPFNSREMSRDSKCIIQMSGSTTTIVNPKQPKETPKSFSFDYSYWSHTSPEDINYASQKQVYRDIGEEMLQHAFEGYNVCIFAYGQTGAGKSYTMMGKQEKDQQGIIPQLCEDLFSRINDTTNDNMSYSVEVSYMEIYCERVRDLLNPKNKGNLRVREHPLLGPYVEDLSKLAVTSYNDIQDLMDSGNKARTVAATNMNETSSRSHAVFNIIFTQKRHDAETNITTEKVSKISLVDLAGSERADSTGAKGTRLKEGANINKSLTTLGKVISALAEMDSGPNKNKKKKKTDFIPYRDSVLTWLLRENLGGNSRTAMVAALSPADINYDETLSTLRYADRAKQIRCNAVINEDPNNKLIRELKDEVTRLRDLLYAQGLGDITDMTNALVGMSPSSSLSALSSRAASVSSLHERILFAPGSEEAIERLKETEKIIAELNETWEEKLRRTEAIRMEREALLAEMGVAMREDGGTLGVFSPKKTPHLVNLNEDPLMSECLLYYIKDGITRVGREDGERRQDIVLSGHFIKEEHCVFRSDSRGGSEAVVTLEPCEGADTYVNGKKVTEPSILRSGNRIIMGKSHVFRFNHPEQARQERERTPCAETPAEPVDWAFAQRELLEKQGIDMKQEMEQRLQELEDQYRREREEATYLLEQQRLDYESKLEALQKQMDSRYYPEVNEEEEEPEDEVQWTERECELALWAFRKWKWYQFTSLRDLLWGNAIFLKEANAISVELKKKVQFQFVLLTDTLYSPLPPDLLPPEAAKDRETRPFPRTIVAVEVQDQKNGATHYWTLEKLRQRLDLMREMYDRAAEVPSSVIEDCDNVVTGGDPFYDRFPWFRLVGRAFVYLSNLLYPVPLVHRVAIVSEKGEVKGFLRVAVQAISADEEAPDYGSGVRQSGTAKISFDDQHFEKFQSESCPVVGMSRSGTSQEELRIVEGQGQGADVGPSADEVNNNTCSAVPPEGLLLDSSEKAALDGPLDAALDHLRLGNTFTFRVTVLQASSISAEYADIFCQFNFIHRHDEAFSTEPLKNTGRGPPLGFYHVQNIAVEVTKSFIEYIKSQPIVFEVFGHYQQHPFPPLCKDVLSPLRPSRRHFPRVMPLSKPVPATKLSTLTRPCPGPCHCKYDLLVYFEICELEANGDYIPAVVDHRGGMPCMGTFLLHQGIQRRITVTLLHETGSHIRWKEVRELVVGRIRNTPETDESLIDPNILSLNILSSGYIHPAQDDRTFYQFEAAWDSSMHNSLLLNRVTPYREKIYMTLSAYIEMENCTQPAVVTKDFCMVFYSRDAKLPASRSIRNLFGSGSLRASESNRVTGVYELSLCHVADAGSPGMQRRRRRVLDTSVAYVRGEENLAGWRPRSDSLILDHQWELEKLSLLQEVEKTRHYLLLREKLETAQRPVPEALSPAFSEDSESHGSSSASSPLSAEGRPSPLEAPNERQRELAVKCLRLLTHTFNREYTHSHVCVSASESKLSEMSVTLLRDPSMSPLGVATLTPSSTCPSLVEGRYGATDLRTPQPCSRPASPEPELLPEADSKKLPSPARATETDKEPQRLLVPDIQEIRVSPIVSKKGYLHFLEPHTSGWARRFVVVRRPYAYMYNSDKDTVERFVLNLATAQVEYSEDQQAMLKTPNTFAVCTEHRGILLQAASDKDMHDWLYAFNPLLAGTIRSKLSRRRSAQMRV

The first test deals with transactive response DNA binding protein 43 kDa (human (endogenous in iPSC-derived motor neurons)) (UniProt Q13148). Description: affinity purification with mass spectrometry; anti-TDP-43 (N-terminal) antibody coupled to M-270 epoxy beads; about 1 mg protein of iPSC-neuron lysate (control and KIF1A mutant neurons), 12 to 16 hours at 4°C; eluate analysed by LC-MS/MS.
For the substance KIF21B (from UniProt O75037 1-1637), the binding entry is reported as “binds”.
Same read-out and setting: to “kinesin light chain protein 2 (from UniProt Q9H0B6 1-622)” belongs “binds”; to KIF21A (from UniProt Q7Z4S6 1-1674), “binds”.
For ANXA5 (from UniProt P08758 1-320), the binding result is given as “binds”.
On the same count and under the same terms, to “kinesin light chain protein 4 (from UniProt Q9NSK0 1-619)” belongs “binds”; to annexin-11 (from UniProt P50995 1-505), “binds”.

Another test addresses kinesin-like protein KIF1A, wild type (human (endogenous in iPSC-derived motor neurons)) (UniProt Q12756). Description: affinity purification with mass spectrometry; anti-KIF1A antibody coupled to M-270 epoxy beads; about 1 mg protein of iPSC-neuron lysate (control and KIF1A mutant neurons), 12 to 16 hours at 4°C; eluate analysed by LC-MS/MS.
As to “kinesin light chain protein 2 (from UniProt Q9H0B6 1-622)”, the binding result is given as “binds”.
Turning to “kinesin light chain protein 4 (from UniProt Q9NSK0 1-619)”, the binding result was “binds”.
Still for that read-out and setting: the result for “kinesin light chain protein 1 (from UniProt Q07866 1-573)” reads “binds”.
